# According to the supplement of paper PMC6411743:
# Sequences of proteins named here, by UniProt entry; tags and fusion partners are left off. A change or cut given only in a name is not applied to a line headed by its entry.
# UniProt P15289: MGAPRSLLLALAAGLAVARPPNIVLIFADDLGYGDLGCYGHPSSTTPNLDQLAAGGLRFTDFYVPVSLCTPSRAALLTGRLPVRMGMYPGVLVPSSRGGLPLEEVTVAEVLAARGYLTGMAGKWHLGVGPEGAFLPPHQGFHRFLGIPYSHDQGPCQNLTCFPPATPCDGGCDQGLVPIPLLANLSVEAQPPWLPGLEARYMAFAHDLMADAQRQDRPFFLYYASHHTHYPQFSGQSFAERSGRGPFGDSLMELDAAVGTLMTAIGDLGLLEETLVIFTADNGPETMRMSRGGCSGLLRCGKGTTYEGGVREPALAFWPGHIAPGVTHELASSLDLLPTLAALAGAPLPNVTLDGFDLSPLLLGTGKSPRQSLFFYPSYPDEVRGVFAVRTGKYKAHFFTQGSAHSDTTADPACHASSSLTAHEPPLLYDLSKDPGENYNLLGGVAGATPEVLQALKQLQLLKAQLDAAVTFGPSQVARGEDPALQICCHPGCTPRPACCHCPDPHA
# UniProt Q08379: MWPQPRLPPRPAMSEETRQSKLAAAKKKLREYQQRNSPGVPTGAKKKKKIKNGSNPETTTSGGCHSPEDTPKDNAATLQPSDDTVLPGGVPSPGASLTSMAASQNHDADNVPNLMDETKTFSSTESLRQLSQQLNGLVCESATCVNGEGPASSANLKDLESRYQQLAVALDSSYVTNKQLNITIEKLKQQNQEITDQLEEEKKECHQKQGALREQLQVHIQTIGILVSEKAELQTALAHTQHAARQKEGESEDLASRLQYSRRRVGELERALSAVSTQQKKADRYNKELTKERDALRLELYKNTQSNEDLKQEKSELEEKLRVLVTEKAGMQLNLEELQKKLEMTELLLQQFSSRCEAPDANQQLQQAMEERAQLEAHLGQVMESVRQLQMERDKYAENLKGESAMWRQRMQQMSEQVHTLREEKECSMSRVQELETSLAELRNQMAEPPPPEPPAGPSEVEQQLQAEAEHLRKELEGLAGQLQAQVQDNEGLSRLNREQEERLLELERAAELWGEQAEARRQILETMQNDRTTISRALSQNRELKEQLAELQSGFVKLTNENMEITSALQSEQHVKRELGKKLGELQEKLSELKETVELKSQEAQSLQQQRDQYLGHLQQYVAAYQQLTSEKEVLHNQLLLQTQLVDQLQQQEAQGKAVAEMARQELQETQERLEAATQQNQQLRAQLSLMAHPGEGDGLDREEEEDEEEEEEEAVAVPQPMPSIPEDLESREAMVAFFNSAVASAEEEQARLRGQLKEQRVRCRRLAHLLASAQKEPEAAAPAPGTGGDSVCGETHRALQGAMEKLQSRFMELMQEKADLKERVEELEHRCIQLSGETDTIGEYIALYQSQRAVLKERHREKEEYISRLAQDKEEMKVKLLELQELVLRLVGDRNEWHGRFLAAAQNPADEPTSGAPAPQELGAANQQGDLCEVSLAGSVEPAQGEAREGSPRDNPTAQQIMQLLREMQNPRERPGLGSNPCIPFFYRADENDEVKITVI
# UniProt Q9UKF7: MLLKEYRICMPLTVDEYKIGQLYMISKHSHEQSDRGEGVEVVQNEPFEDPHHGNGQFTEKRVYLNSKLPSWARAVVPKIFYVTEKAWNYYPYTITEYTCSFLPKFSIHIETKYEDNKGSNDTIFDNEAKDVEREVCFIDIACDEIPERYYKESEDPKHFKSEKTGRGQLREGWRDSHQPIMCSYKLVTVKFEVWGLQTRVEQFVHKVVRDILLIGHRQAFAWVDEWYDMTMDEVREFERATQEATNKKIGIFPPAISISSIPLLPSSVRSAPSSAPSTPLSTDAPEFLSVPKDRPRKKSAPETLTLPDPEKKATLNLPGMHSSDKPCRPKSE
# UniProt Q13555: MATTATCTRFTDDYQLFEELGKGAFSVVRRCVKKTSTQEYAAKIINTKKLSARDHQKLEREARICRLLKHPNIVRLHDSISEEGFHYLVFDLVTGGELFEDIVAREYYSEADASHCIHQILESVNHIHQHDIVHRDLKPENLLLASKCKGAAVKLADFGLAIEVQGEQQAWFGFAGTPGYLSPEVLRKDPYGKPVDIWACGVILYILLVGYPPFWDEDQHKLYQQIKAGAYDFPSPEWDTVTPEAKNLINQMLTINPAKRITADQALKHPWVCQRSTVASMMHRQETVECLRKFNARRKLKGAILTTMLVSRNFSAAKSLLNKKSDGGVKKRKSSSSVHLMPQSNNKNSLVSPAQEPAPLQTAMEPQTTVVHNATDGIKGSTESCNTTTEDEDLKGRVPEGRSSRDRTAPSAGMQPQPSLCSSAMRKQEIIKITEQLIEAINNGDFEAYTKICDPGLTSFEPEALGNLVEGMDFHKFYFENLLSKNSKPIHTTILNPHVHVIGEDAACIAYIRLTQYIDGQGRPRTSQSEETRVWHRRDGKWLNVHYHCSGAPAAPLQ
# UniProt Q8WXG6, whole entry, looked up: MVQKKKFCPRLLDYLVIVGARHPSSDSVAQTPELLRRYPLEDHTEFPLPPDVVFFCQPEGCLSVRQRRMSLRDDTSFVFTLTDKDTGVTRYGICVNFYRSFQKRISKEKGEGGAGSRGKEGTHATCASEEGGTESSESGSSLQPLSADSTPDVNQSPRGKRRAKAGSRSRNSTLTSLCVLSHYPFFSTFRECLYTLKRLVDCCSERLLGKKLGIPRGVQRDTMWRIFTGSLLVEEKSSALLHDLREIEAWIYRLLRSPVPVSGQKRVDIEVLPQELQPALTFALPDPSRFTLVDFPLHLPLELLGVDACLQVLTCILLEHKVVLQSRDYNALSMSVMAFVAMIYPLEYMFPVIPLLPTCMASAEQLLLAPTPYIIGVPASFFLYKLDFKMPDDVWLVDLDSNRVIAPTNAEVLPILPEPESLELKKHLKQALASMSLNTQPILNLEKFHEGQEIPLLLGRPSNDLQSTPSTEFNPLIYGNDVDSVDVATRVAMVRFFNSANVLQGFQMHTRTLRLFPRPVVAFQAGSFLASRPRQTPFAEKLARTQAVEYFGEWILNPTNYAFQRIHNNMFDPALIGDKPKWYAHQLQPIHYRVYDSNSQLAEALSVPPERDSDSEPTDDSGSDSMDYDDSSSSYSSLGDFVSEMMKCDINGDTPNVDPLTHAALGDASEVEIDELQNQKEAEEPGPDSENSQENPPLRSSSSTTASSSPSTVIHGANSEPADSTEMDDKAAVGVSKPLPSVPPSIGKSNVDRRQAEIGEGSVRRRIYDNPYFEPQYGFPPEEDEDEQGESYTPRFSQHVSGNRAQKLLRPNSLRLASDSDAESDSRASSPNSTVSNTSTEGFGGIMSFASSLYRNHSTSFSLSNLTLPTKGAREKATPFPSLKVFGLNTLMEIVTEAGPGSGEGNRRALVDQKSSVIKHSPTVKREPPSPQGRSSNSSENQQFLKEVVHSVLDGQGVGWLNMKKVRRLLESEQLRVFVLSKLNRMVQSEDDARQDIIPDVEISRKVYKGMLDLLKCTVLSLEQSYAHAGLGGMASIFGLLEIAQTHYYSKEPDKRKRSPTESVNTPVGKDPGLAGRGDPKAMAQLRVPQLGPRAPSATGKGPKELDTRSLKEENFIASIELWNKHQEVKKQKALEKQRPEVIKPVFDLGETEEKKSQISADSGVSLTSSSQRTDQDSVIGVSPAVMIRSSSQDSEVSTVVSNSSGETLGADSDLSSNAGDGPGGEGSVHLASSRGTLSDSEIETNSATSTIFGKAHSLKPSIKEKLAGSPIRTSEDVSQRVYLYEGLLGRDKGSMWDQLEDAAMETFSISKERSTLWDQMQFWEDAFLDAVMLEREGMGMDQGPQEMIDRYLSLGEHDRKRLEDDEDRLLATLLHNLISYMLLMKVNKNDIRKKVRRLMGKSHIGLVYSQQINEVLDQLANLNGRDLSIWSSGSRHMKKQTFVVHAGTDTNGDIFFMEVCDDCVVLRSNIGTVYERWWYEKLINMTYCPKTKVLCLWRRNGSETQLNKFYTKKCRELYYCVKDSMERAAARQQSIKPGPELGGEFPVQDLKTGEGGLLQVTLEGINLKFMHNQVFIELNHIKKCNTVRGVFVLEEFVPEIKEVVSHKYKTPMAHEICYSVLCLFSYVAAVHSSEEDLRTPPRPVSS
# UniProt Q9Y2Y9: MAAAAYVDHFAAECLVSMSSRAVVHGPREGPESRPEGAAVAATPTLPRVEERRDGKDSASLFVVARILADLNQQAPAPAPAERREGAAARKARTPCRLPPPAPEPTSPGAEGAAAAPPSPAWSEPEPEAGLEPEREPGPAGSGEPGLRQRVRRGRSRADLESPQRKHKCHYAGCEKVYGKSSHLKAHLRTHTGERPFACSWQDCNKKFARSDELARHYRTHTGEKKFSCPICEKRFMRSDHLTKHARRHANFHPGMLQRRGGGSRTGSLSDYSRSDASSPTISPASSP
# UniProt Q8IWB9: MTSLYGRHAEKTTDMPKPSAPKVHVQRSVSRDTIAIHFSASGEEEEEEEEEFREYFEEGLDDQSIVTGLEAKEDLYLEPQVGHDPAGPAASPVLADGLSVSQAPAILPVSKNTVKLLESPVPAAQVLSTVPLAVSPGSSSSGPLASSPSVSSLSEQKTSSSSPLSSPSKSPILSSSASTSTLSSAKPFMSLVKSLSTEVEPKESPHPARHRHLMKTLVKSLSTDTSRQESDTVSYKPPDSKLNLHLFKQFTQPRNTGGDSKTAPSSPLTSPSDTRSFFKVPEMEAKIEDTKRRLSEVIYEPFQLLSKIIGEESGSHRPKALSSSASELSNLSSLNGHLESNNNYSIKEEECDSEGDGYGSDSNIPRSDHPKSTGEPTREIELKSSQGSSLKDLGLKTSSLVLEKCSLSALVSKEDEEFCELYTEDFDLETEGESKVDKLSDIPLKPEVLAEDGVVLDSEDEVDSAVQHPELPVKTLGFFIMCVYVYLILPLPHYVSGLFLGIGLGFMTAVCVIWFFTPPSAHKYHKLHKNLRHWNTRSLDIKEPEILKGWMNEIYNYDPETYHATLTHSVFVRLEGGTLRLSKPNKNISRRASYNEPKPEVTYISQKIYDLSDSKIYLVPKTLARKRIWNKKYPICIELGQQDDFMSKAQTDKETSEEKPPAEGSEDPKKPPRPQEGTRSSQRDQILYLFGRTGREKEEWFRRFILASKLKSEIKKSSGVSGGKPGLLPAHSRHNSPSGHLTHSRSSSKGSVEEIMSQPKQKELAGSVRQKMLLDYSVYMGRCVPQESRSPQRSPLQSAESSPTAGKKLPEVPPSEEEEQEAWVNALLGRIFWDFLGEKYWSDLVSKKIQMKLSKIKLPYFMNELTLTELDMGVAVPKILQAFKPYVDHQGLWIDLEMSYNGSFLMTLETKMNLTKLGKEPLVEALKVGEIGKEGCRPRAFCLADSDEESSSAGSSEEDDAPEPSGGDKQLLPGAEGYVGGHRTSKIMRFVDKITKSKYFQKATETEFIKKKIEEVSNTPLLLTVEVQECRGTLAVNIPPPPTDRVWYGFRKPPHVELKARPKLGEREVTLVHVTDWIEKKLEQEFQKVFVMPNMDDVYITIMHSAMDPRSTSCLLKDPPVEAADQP
# UniProt P56556, whole entry: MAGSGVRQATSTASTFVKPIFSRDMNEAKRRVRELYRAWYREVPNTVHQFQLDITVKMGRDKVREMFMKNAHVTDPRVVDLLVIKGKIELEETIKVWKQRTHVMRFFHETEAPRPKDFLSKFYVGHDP
# UniProt Q9Y388: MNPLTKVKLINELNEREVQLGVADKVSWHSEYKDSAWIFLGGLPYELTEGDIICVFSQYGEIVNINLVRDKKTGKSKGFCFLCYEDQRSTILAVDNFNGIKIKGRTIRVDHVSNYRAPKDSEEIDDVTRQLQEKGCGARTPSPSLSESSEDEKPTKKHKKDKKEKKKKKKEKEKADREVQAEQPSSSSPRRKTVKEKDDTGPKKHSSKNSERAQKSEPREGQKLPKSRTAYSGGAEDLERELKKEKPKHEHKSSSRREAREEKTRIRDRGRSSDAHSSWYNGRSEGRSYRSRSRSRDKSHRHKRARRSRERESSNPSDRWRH
# UniProt Q16836: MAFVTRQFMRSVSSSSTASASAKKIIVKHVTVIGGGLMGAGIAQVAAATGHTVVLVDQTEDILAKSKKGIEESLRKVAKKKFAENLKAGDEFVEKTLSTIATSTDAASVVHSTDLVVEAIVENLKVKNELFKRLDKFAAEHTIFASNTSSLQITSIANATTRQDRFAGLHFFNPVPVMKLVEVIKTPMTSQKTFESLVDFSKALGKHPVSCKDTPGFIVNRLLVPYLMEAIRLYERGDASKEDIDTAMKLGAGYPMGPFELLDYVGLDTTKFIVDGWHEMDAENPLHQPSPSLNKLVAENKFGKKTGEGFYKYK
# UniProt Q9H2U2: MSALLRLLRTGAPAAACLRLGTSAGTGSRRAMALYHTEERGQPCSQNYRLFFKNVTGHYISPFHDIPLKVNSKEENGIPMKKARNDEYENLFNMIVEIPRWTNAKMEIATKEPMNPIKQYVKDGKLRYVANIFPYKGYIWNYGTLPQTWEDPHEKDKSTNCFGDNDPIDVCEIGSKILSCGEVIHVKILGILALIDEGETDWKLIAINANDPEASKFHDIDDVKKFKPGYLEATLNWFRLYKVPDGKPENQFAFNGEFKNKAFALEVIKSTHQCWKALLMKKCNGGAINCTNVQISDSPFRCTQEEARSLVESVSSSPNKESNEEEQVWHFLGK
# ± gives the standard deviation of the averaged measurements. The list shows a part of the results, in another mix than the full data. Most values lie at the level of the controls, where differences are scatter.
# Compound: Nc1ncnc2c1ncn2[C@@H]1O[C@H](COP(=O)(O)OP(=O)(O)OP(=O)(O)O)[C@@H](O)[C@H]1O [adenosine triphosphate]
# Test: NP40-soluble protein abundance relative to vehicle (solubility fold change) (ratio); higher = more soluble protein in presence of ATP
# Summary of the method: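 Each value is a fold change relative to the detergent-processed vehicle, calculated per replicate from vsn-normalised intensities. Jurkat crude lysate received eight concentrations (0.1 to 10 mM) for 10 min at room temperature and 3 min at 37 °C, then was solubilised in 0.8% NP40 with benzonase (60 min, 4 °C). The ultracentrifuged supernatant was TMT-labelled and run by LC-MS/MS in three independent experiments.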
Target,NP40-soluble protein abundance (concentration: 0.1mM),NP40-soluble protein abundance (concentration: 0.5mM),NP40-soluble protein abundance (concentration: 1mM),NP40-soluble protein abundance (concentration: 2mM),NP40-soluble protein abundance (concentration: 4mM),NP40-soluble protein abundance (concentration: 6mM),NP40-soluble protein abundance (concentration: 8mM),NP40-soluble protein abundance (concentration: 10mM)
A0A0C4DFZ2|P15289 (UniProt P15289),0.9591 ± 0.0093,0.963 ± 0.0096,–,–,–,–,–,–
A0A087X0M4|Q9BWU0 (UniProt Q9BWU0),1 ± 0.012,1.03 ± 0.072,–,–,–,–,–,–
A0A0C4DGS5|B7ZC06 and related entries (UniProt Q08379),0.974 ± 0.031,0.968 ± 0.036,–,–,–,–,–,–
A0A087WY71|Q96CW1 and related entries (UniProt Q96CW1),1.07 ± 0.054,1.08 ± 0.012,–,–,–,–,–,–
A0A0C4DGP0|E7EU35 and related entries (UniProt Q9UKF7),0.986 ± 0.025,1.06 ± 0.02,–,–,–,–,–,–
A0A0C4DFN1|Q8IWA4 (UniProt Q8IWA4),1.04 ± 0.033,1.04 ± 0.065,–,–,–,–,–,–
A0A0A0MS52|Q13555-2|Q13555-8|Q13555-9 (UniProt Q13555),0.989 ± 0.043,1.03 ± 0.062,–,–,–,–,–,–
A0A0A0MRB5|Q8WXG6 and related entries (UniProt Q8WXG6),0.965 ± 0.028,0.981 ± 0.053,–,–,–,–,–,–
A0A0A0MTH9|O14981 (UniProt O14981),1.02 ± 0.012,1.01 ± 0.015,–,–,–,–,–,–
A0A0C4DGA2|O75521 and related entries (UniProt O75521),1.01 ± 0.056,1.04 ± 0.043,–,–,–,–,–,–
A0A0A0MSF9|Q8N954 (UniProt Q8N954),0.909 ± 0.049,0.931 ± 0.057,–,–,–,–,–,–
A0A087WSV8|V9HW75 (UniProt V9HW75),0.993 ± 0.072,0.915 ± 0.13,–,–,–,–,–,–
A0A0C4DH16|B8ZZS0 and related entries (UniProt Q9NYM9),0.857 ± 0.094,0.834 ± 0.18,–,–,–,–,–,–
A0A0A0MQX8|C9JP00 and related entries (UniProt Q9NR56),1 ± 0.055,1.02 ± 0.032,–,–,–,–,–,–
A0A087WYU1|Q9Y5X1 (UniProt Q9Y5X1),0.975 ± 0.071,1.02 ± 0.03,–,–,–,–,–,–
A0A0D9SEZ9|O00303 (UniProt O00303),0.953 ± 0.037,0.949 ± 0.063,–,–,–,–,–,–
A0A0A6YYC8|I3L1I5 (UniProt I3L1I5),0.989 ± 0.051,0.96 ± 0.026,–,–,–,–,–,–
A0A0A0MTS7|Q8WZ42-12 (UniProt Q8WZ42),0.964 ± 0.038,0.962 ± 0.053,–,–,–,–,–,–
A0A087WSW9|A0A087WSY9|Q16881 and related entries (UniProt Q16881),1.04 ± 0.071,1.03 ± 0.05,–,–,–,–,–,–
A0A087X1K6|Q9Y2Y9 (UniProt Q9Y2Y9),0.996 ± 0.052,0.937 ± 0.026,–,–,–,–,–,–

Target,NP40-soluble protein abundance (concentration: 0.1mM),NP40-soluble protein abundance (concentration: 0.5mM),NP40-soluble protein abundance (concentration: 1mM),NP40-soluble protein abundance (concentration: 2mM),NP40-soluble protein abundance (concentration: 4mM),NP40-soluble protein abundance (concentration: 6mM),NP40-soluble protein abundance (concentration: 8mM),NP40-soluble protein abundance (concentration: 10mM)
A0A087WVA8|Q8IWB9 and related entries (UniProt Q8IWB9),0.995 ± 0.024,1.01 ± 0.074,1.02 ± 0.043,0.975 ± 0.072,0.984 ± 0.062,0.982 ± 0.024,0.973 ± 0.07,0.993 ± 0.052
A0A0A6YYA7|Q12851 and related entries (UniProt Q12851),1.04 ± 0.052,1.03 ± 0.031,1.02 ± 0.026,1 ± 0.044,1.03 ± 0.063,0.994 ± 0.079,0.994 ± 0.026,0.998 ± 0.027
A0A0A0MT22|M9MML4 and related entries (UniProt P08575),0.9793 ± 0.0079,0.985 ± 0.024,0.946 ± 0.026,0.9679 ± 0.0084,0.9321 ± 0.0056,0.967 ± 0.014,0.918 ± 0.018,0.943 ± 0.036
A0A087WW77|Q15334 (UniProt Q15334),1.06 ± 0.025,1.04 ± 0.04,–,–,–,–,–,–
A0A087WXM6|A0A0A6YYL6|J3KRX5 and related entries (UniProt P18621),0.932 ± 0.14,0.934 ± 0.15,–,–,–,–,–,–
A0A0C4DGS0|P56556 (UniProt P56556),0.917 ± 0.055,0.944 ± 0.14,0.969 ± 0.066,0.922 ± 0.055,0.901 ± 0.046,0.875 ± 0.066,0.926 ± 0.053,0.909 ± 0.031
A0A087WUI1|Q9Y388 (UniProt Q9Y388),1.15 ± 0.034,1.15 ± 0.06,–,–,–,–,–,–
A0A087X176|Q6ZRP7 (UniProt Q6ZRP7),0.996 ± 0.071,0.987 ± 0.046,0.958 ± 0.057,0.983 ± 0.011,0.961 ± 0.028,0.99 ± 0.029,0.953 ± 0.026,0.96 ± 0.037
A0A087WV29|Q9H0A0 (UniProt Q9H0A0),1.09 ± 0.052,1.13 ± 0.03,1.2 ± 0.1,1.37 ± 0.1,1.59 ± 0.11,1.69 ± 0.18,2.15 ± 0.14,2.32 ± 0.22
A0A0C4DGQ8|Q6IAN0 (UniProt Q6IAN0),1.03 ± 0.1,0.974 ± 0.021,–,–,–,–,–,–
A0A0A0MTB8|Q8NI36 (UniProt Q8NI36),1.06 ± 0.054,1.12 ± 0.05,1.21 ± 0.057,1.37 ± 0.057,1.68 ± 0.13,1.86 ± 0.23,2.12 ± 0.14,2.17 ± 0.17
A0A087X159|P81877 and related entries (UniProt P81877),1.03 ± 0.083,0.941 ± 0.055,–,–,–,–,–,–
A0A0A0MSK4|Q86YR5 and related entries (UniProt Q86YR5),0.9964 ± 0.0096,0.961 ± 0.035,0.972 ± 0.037,0.99 ± 0.074,0.9991 ± 0.0089,1.018 ± 0.0076,0.96 ± 0.021,0.981 ± 0.05
A0A0B4J1Z1|C9JAB2 and related entries (UniProt Q16629),1.08 ± 0.13,1.46 ± 0.21,1.7 ± 0.28,1.77 ± 0.28,1.89 ± 0.28,2.04 ± 0.31,1.98 ± 0.38,2.09 ± 0.36
A0A087WTM7|P04114 (UniProt P04114),1.1 ± 0.11,0.949 ± 0.064,1.09 ± 0.039,1.05 ± 0.029,0.98 ± 0.11,0.965 ± 0.086,0.976 ± 0.082,0.989 ± 0.074
A0A0B4J2C3|P13693 and related entries (UniProt P13693),0.98 ± 0.017,0.982 ± 0.021,0.95 ± 0.025,0.942 ± 0.021,0.915 ± 0.025,0.923 ± 0.05,0.919 ± 0.035,0.909 ± 0.048
A0A0A0MSV9|A0A0G2JH37|A0A0G2JKZ1|A2AB90 and related entries (UniProt O15533),1.07 ± 0.076,1.05 ± 0.12,1.04 ± 0.066,1.02 ± 0.067,0.986 ± 0.028,0.968 ± 0.047,0.99 ± 0.085,0.984 ± 0.088
A0A0A0MQU4|Q96I15 (UniProt Q96I15),0.975 ± 0.021,1.03 ± 0.061,–,–,–,–,–,–
A0A075B6F5|F5GXR6 and related entries (UniProt Q8IUG5),1.05 ± 0.013,0.933 ± 0.026,0.986 ± 0.023,0.927 ± 0.014,1.1 ± 0.016,1.06 ± 0.022,1.14 ± 0.13,1.18 ± 0.18
A0A0C4DGQ5|P04632 (UniProt P04632),0.946 ± 0.024,0.853 ± 0.11,0.9315 ± 0.0081,0.964 ± 0.077,0.923 ± 0.022,0.884 ± 0.039,0.885 ± 0.0089,0.875 ± 0.06

# Reprinted at random: four records from the list, in no set order.
Target,NP40-soluble protein abundance (concentration: 0.1mM),NP40-soluble protein abundance (concentration: 0.5mM),NP40-soluble protein abundance (concentration: 1mM),NP40-soluble protein abundance (concentration: 2mM),NP40-soluble protein abundance (concentration: 4mM),NP40-soluble protein abundance (concentration: 6mM),NP40-soluble protein abundance (concentration: 8mM),NP40-soluble protein abundance (concentration: 10mM)
A0A0C4DGS0|P56556 (UniProt P56556),0.917 ± 0.055,0.944 ± 0.14,0.969 ± 0.066,0.922 ± 0.055,0.901 ± 0.046,0.875 ± 0.066,0.926 ± 0.053,0.909 ± 0.031
A0A087WUI1|Q9Y388 (UniProt Q9Y388),1.15 ± 0.034,1.15 ± 0.06,–,–,–,–,–,–
A0A087WVA8|Q8IWB9 and related entries (UniProt Q8IWB9),0.995 ± 0.024,1.01 ± 0.074,1.02 ± 0.043,0.975 ± 0.072,0.984 ± 0.062,0.982 ± 0.024,0.973 ± 0.07,0.993 ± 0.052
A0A087WXM6|A0A0A6YYL6|J3KRX5 and related entries (UniProt P18621),0.932 ± 0.14,0.934 ± 0.15,–,–,–,–,–,–

# (cont.)

Target,NP40-soluble protein abundance (concentration: 0.1mM),NP40-soluble protein abundance (concentration: 0.5mM),NP40-soluble protein abundance (concentration: 1mM),NP40-soluble protein abundance (concentration: 2mM),NP40-soluble protein abundance (concentration: 4mM),NP40-soluble protein abundance (concentration: 6mM),NP40-soluble protein abundance (concentration: 8mM),NP40-soluble protein abundance (concentration: 10mM)
A0A0A0MTC1|A0A0A0MTR7 (UniProt Q63HN8),1.05 ± 0.063,1.09 ± 0.049,1.15 ± 0.14,1.11 ± 0.096,1.12 ± 0.083,1.03 ± 0.074,1.2 ± 0.049,1.11 ± 0.031
A0A0B4J220 (UniProt E9PRG8),0.988 ± 0.06,0.991 ± 0.017,1.02 ± 0.028,1.11 ± 0.066,1.27 ± 0.17,1.31 ± 0.091,1.42 ± 0.27,1.56 ± 0.23
A0A0A0MRY0|Q8WUA7 and related entries (UniProt Q8WUA7),1.09 ± 0.1,1.07 ± 0.082,–,–,–,–,–,–
A0A087WYN9|Q7Z478 (UniProt Q7Z478),1.21 ± 0.022,2.1 ± 0.045,2.24 ± 0.062,2.31 ± 0.051,2.45 ± 0.092,2.57 ± 0.045,2.68 ± 0.07,2.74 ± 0.062
A0A0A0MSE2|E9PF18 and related entries (UniProt Q16836),1.01 ± 0.023,1.01 ± 0.041,–,–,–,–,–,–
A0A096LP25|Q2M2I8 and related entries (UniProt Q2M2I8),1.02 ± 0.044,1.03 ± 0.039,–,–,–,–,–,–
A0A0D9SEU5|Q6VN20 and related entries (UniProt Q6VN20),0.998 ± 0.025,1.03 ± 0.063,0.968 ± 0.017,0.944 ± 0.05,0.979 ± 0.02,0.996 ± 0.11,0.935 ± 0.028,0.951 ± 0.036
A0A096LP10|Q9NP73-2|A0A087WTT9|A0A087WX43|A0A096LNJ4|D6RE84 and related entries (UniProt Q9NP73),1.13 ± 0.15,0.994 ± 0.041,–,–,–,–,–,–
A0A0C4DGB9|Q9H2U2 (UniProt Q9H2U2),1.02 ± 0.04,1.01 ± 0.031,0.971 ± 0.022,0.97 ± 0.029,0.953 ± 0.03,0.93 ± 0.051,0.952 ± 0.038,0.919 ± 0.037
A0A087WWP8 (UniProt Q5VWQ0),1.1 ± 0.022,1.41 ± 0.078,1.48 ± 0.058,1.53 ± 0.045,1.61 ± 0.043,1.68 ± 0.048,1.68 ± 0.069,1.69 ± 0.063
A0A0A0MRR7|P09234 (UniProt P09234),0.998 ± 0.11,1.21 ± 0.058,1.34 ± 0.087,1.39 ± 0.078,1.56 ± 0.062,1.87 ± 0.2,1.83 ± 0.041,1.84 ± 0.1
A0A087WWS1|Q96FV9 (UniProt Q96FV9),1.05 ± 0.052,1.37 ± 0.09,1.509 ± 0.011,1.65 ± 0.068,1.89 ± 0.099,2.14 ± 0.2,2.31 ± 0.075,2.4 ± 0.13
A0A087WYG2|E9PFH7 and related entries (UniProt Q9UPT6),1.01 ± 0.066,1.04 ± 0.12,0.979 ± 0.055,0.996 ± 0.054,0.993 ± 0.097,0.988 ± 0.094,0.959 ± 0.066,0.956 ± 0.029
A0A087X1Z3|Q9UL46 (UniProt Q9UL46),0.875 ± 0.1,0.846 ± 0.14,–,–,–,–,–,–
A0A087WY00|F8W6H6 and related entries (UniProt Q9Y4I1),0.964 ± 0.048,2.74 ± 0.16,2.94 ± 0.086,2.89 ± 0.071,2.94 ± 0.14,2.96 ± 0.19,2.96 ± 0.088,2.84 ± 0.062
A0A075B7F8|A8CG34 and related entries (UniProt Q96HA1+A8CG34),0.944 ± 0.093,0.91 ± 0.038,–,–,–,–,–,–
A0A087WXC5|O95299 and related entries (UniProt O95299),1.01 ± 0.072,1.06 ± 0.055,1.03 ± 0.024,1.02 ± 0.033,0.982 ± 0.034,1 ± 0.022,1.02 ± 0.023,1 ± 0.034
A0A0A0MRR5|Q96BW1 and related entries (UniProt Q96BW1),0.997 ± 0.045,1.09 ± 0.099,–,–,–,–,–,–
